Test results reported in PMC7702304.
No constants are given. Whether binding was seen depends on the method and setting. Binding seen in cells or lysates may run through a third protein. Some results given as binding are weak or reduced against the parent protein; the word gives no strength.

Sequences of proteins named here, by UniProt entry; tags and fusion partners are left off. Residues count along the entry.
UniProt Q5S007, residues 1-552: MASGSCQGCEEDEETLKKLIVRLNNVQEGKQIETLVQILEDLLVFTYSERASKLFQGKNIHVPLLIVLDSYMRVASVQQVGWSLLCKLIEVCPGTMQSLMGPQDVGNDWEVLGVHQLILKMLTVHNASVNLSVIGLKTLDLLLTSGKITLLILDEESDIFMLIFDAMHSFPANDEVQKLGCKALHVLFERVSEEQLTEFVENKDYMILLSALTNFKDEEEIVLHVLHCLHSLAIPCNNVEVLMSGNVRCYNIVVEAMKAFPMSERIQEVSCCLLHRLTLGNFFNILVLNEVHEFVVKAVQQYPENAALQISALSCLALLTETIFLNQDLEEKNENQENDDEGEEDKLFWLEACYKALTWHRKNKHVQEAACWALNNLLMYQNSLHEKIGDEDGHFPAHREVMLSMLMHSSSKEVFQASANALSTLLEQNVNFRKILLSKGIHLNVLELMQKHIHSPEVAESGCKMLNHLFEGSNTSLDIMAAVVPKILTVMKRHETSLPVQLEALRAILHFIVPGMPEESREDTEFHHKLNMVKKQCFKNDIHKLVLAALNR

Target: 2X 6-His LRRK2 1-552 (UniProt Q5S007)
Test: pull-down; 6-His LRRK2 1-552 immobilised on nickel-NTA agarose; 1.5 mg intestinal tissue lysate diluted to 10 ml in low salt buffer (50 mM Tris-HCl pH 7.5, 150 mM NaCl, 5 mM MgCl2, 10% glycerol, 0.5 mM TCEP, 20 mM imidazole; ~0.03% Triton X-100) with 100 uM GTP-gamma-S; 2 h at 4°C; eluted with 500 mM imidazole; immunoblot; only the target purified

| binding | Binder |
| --- | --- |
| binds | transgenic Rab29 (protein, UniProt Q91YQ1 1-204) MGSRDHLFKVLVVGDAAVGKTSLVQRYSQDSFSKHYKSTVGVDFALKVLQWSDSEMVRLQLWDIAGQERFTSMTRLYYRDASACVIMFDVTNATTFSNSQRWKQDLDSKLTLPSGEPVPCLLLANKSDLSPWAVSRDQIDRFSKENGFTGWTETSVKENKNINEAMRVLVEKMMNNSREDVMSLSTQGNYINLQAKPSSGWTCC |
| binds | endogenously expressed wildtype Rab29 (protein, UniProt Q91YQ1 1-204) MGSRDHLFKVLVVGDAAVGKTSLVQRYSQDSFSKHYKSTVGVDFALKVLQWSDSEMVRLQLWDIAGQERFTSMTRLYYRDASACVIMFDVTNATTFSNSQRWKQDLDSKLTLPSGEPVPCLLLANKSDLSPWAVSRDQIDRFSKENGFTGWTETSVKENKNINEAMRVLVEKMMNNSREDVMSLSTQGNYINLQAKPSSGWTCC |
